The record followed here is the supplement of paper PMC12067093, “Discovery and optimisation of a covalent ligand for TRIM25 and its application to targeted protein ubiquitination” (Chemical Science, 2025).

This is one part of the list.

Compound in the assay: Cc1cc(ccc1-c1ccccc1)C(=O)N1CCCN(CC1)C(=O)CCl [compound 10]
The assay can be described thus: probe-labelled cysteine peptide fold change vs DMSO (competition) (log2 fold change); higher = less target engagement (more negative = stronger competition). The note with it: THP-1, incubation time: 4 h.
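Also: competitive profiling in live THP-1 cells: cysteine peptides tagged with an iodoacetamide desthiobiotin (IA-DTB) probe, intensity after compound treatment relative to DMSO-treated cells.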

On to “PREPL_Q4J6C6_160_LDQPFIDCIR (UniProt Q4J6C6)”, for which the “probe-labelled cysteine peptide fold change” value was -0.024 (10 µM) and -0.161 (50 µM).

Take “PRDX1_Q06830_71_LNCQVIGASVDSHFCHLAWVNTPK (UniProt Q06830)”: the “probe-labelled cysteine peptide fold change” value was 0.0865 (10 µM) and -0.0549 (50 µM).

On to “PPP6R2_O75170_264_NMFDGDRTESCLVSGTQVLLTLLETR (UniProt O75170)”, for which the “probe-labelled cysteine peptide fold change” value (10 µM) is -0.0678 and the “probe-labelled cysteine peptide fold change” value (50 µM) was -0.136.

Take “PRDX2_P32119_70_LGCEVLGVSVDSQFTHLAWINTPRK (UniProt P32119)”: the “probe-labelled cysteine peptide fold change” value was 0.198 (10 µM) and -0.115 (50 µM).

In the case of “PPP2R1A_P30153_310+317_EFCENLSADCR (UniProt P30153)”, the “probe-labelled cysteine peptide fold change” value reads like this: (10 µM) -0.111; (50 µM) 0.164.

With “PPM1H_Q9ULR3_239_KIPHECLVIGALESAFK (UniProt Q9ULR3)”, the “probe-labelled cysteine peptide fold change” value by setting is: (10 µM) -0.0444; (50 µM) -0.137.

Regarding “PRDX6_P30041_91_DINAYNCEEPTEKLPFPIIDDR (UniProt P30041)”, the “probe-labelled cysteine peptide fold change” value (10 µM) was -0.373 and the “probe-labelled cysteine peptide fold change” value (50 µM) was -1.02.

For the target “PREPL_Q4J6C6_227_CHDVYR (UniProt Q4J6C6)”, the “probe-labelled cysteine peptide fold change” value is 0.00281 (10 µM) and -0.172 (50 µM).

“PPP1R3G_B7ZBB8_225_VQCSTASGAEVK (UniProt B7ZBB8)”: the “probe-labelled cysteine peptide fold change” value reads like this: (10 µM) -0.163; (50 µM) -0.289.

As to “PPP2R1B_P30154_389_DECPDVR (UniProt P30154)”, the “probe-labelled cysteine peptide fold change” value by setting is: (10 µM) 0.0244; (50 µM) 0.231.

On to “PREPL_Q4J6C6_184_TEDSEASTCVIIK (UniProt Q4J6C6)”, for which the “probe-labelled cysteine peptide fold change” value (10 µM) turned out to be 0.111 and the “probe-labelled cysteine peptide fold change” value (50 µM) amounted to 0.235.

As for “PPP2R2D_Q66LE6_245_SFNIVDIKPANMEELTEVITAAEFHPHQCNVFVYSSSK (UniProt Q66LE6)”, the “probe-labelled cysteine peptide fold change” value by setting is: (10 µM) -0.00789; (50 µM) -0.502.

Regarding “PPP4R1_Q8TF05_174_VCPVLIELTAPDSNDDVK (UniProt Q8TF05)”, the “probe-labelled cysteine peptide fold change” value (10 µM) was -0.0307 and the “probe-labelled cysteine peptide fold change” value (50 µM) was 0.197.

On to “PPP1R7_Q15435_112_CIENLEELQSLR (UniProt Q15435)”, for which the “probe-labelled cysteine peptide fold change” value was -0.00604 (10 µM) and 0.158 (50 µM).
